From patent US12564622B2, “Preventing cytokine release syndrome” (priority 2017, dated 2026)

Tested on: Raji-bearing NSGS mice with low tumour burden treated with hCART19
Experiment: hCART19 treatment of Raji-bearing NSGS mice, low tumour burden
Format: in vivo, mouse (NSGS)
Description: Six to eight weeks old female NSG-SGM3 (NSGS) mice (NOD.Cg-Prkdcscid Il2rgtm1WjlTg (CMV-IL3, CSF2, KITLG) 1Eav/MloySzJ, Stock #013062) were purchased from the Jackson Laboratory. Raji cells were transfected with a luciferase construct via lentivirus to create Raji-luc cells. NSGS is a triple transgenic strain expressing human IL3, GM-CSF and SCF combine the features of the highly immunodeficient NOD scid gamma (NSG) mouse. One day before the injection of Raji cells, mice were irradiated at a dose of 2 Gy in a CIXD Xstahl device. In high tumor burden experiments in FIG. 5, 10^6 Raji-luc cells were injected IV via tail vein. Six days later, tumor loads were assessed using a Xenogen instrument and 15×10^6 hCART19 cells or untransduced T-cells were injected IV. In low tumor burden experiments in FIG. 6, 2×10^5 Raji-luc cells were injected IV via tail vein. Four days later, tumor loads were assessed using a Xenogen instrument and 15×10^6 hCART19 cells were injected IV. Metyrosine was injected IP at 60 mg/kg/day for three days before the hCART19 injection. On the day of CART19 injection, a fourth dose of 60 mg/kg was given IP and the mice were subsequently injected four more times at daily intervals at 30 mg/kg.

CC[C@H](C)[C@@H]1NC(=O)[C@H](CCCNC(=N)N)NC(=O)[C@H](CC(=O)O)NC(=O)[C@H](CCSC)NC(=O)[C@H](CCCNC(=N)N)NC(=O)CNC(=O)CNC(=O)[C@H](Cc2ccccc2)NC(=O)[C@@H](NC(=O)[C@H](CO)NC(=O)[C@H](CO)NC(=O)[C@H](CCCNC(=N)N)NC(=O)[C@H](CCCNC(=N)N)NC(=O)[C@H](CC(C)C)NC(=O)[C@@H](N)CO)CSSC[C@@H](C(=O)N[C@@H](CC(N)=O)C(=O)N[C@@H](CO)C(=O)N[C@@H](Cc2ccccc2)C(=O)N[C@@H](CCCNC(=N)N)C(=O)N[C@@H](Cc2ccc(O)cc2)C(=O)O)NC(=O)CNC(=O)[C@H](CC(C)C)NC(=O)CNC(=O)[C@H](CO)NC(=O)[C@H](CCC(N)=O)NC(=O)[C@H](C)NC(=O)CNC1=O [ANP, atrial natriuretic peptide]
in vivo CART cell expansion or tumor clearance: Neither metyrosine nor ANP substantially interfered
